# Drug screen on melanoma cell lines: cell count

Values as published with doi:10.1371/journal.pone.0140310, rounded.

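Human melanoma cells were exposed to two drugs together for 72 h in 1,536-well plates and read by automated microscopy after fixing and staining. The read-out is cell count (nuclei) in % of the DMSO control; lower values mean stronger growth inhibition or killing. Concentrations were fixed for each drug; these are the lower of two levels, a fifth of the higher. No replicate spread is given; individual values may be noisy.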 An unselected part of the screen is shown.

Compounds and concentrations:
CX-4945, 0.4 µM: O=C(O)c1ccc2c(c1)nc(Nc1cccc(Cl)c1)c1ccncc12
ENMD-2076, 0.04 µM: Cc1cc(Nc2cc(N3CCN(C)CC3)nc(/C=C/c3ccccc3)n2)n[nH]1
docetaxel, 0.0001 µM: CC(=O)O[C@@]12CO[C@@H]1C[C@H](O)[C@@]1(C)C(=O)[C@H](O)C3=C(C)[C@@H](OC(=O)[C@H](O)[C@@H](NC(=O)OC(C)(C)C)c4ccccc4)C[C@@](O)([C@@H](OC(=O)c4ccccc4)[C@H]21)C3(C)C
MK-2206, 0.4 µM: NC1(c2ccc(-c3nc4ccn5c(=O)[nH]nc5c4cc3-c3ccccc3)cc2)CCC1
tanespimycin, 0.002 µM: C=CCNC1=C2C[C@@H](C)C[C@H](OC)[C@H](O)[C@@H](C)/C=C(\C)[C@H](OC(N)=O)[C@@H](OC)/C=C\C=C(/C)C(=O)NC(=CC1=O)C2=O
fingolimod, 2 µM: CCCCCCCCc1ccc(CCC(N)(CO)CO)cc1
lenalidomide, 1 µM: Nc1cccc2c1CN(C1CCC(=O)NC1=O)C2=O (stereo unspecified)

Drugs	G-361	C32	A375	IPC-298	A2058	COLO 792
tanespimycin and MK-2206	83.7	102	80.8	92.1	89.9	75.1
tanespimycin and ENMD-2076	94.9	86.6	102	100	91.6	97.2
docetaxel and ENMD-2076	28.0	99.8	50.4	71.1	17.3	40.1
MK-2206 and docetaxel	21.3	59.3	11.9	60.2	6.1	32.5
fingolimod and lenalidomide	98.6	103	50.9	93.8	82.9	93.7
tanespimycin and lenalidomide	85.9	64.7	71.5	98.3	92.5	94.1
docetaxel and lenalidomide	32.6	95.7	29.3	68.6	13.3	35.5
CX-4945 and MK-2206	69.9	91.9	87.5	89.1	88.2	56.4
docetaxel and CX-4945	26.7	86.3	28.7	65.0	15.1	28.9
tanespimycin and docetaxel	26.4	89.8	18.5	66.1	7.1	40.4
CX-4945 and lenalidomide	86.1	94.0	85.0	94.3	98.2	97.2
fingolimod and tanespimycin	85.8	86.6	58.7	91.4	76.7	79.3
lenalidomide and MK-2206	81.6	91.3	102	108	92.6	68.9
MK-2206 and fingolimod	85.9	98.1	57.7	91.4	84.9	59.3
CX-4945 and tanespimycin	79.1	104	103	94.8	82.0	94.3
fingolimod and ENMD-2076	118	118	79.6	92.0	87.1	111
docetaxel and fingolimod	36.3	88.6	28.3	78.3	22.1	67.0
CX-4945 and fingolimod	96.7	90.6	69.5	103	93.8	87.5
CX-4945 and ENMD-2076	90.7	101	86.7	97.8	96.8	81.9

2 of the entries, repeated:

Drugs,G-361,C32,A375,IPC-298,A2058,COLO 792
fingolimod and tanespimycin,85.8,86.6,58.7,91.4,76.7,79.3
CX-4945 and ENMD-2076,90.7,101,86.7,97.8,96.8,81.9